Experimental data: US20090286722A1 (priority 2005, published 2009)
Some results were stated once for a whole list of compounds, not compound by compound.

System: BRIN-BD11 cells
Experiment: Acute insulin release from clonal pancreatic BRIN-BD11 cells
Assay type: cell-based
Details: 10^-13 to 10^-6 M peptide, 20 minutes

CCCCCCCCCCCCCCCC(=O)NCCCC[C@H](NC(=O)[C@H](CC(=O)O)NC(=O)[C@H](CCSC)NC(=O)[C@H](C)NC(=O)[C@@H](NC(=O)[C@H](CO)NC(=O)[C@H](Cc1ccc(O)cc1)NC(=O)[C@H](CC(=O)O)NC(=O)[C@H](CO)NC(=O)[C@@H](NC(=O)[C@H](Cc1ccccc1)NC(=O)[C@@H](NC(=O)CNC(=O)[C@H](CCC(=O)O)NC(=O)[C@H](C)NC(=O)[C@@H](N)Cc1ccc(O)cc1)[C@@H](C)O)[C@@H](C)CC)[C@@H](C)CC)C(=O)N[C@H](C(=O)N[C@@H](Cc1c[nH]cn1)C(=O)N[C@@H](CCC(N)=O)C(=O)N[C@@H](CCC(N)=O)C(=O)N[C@@H](CC(=O)O)C(=O)N[C@@H](Cc1ccccc1)C(=O)N[C@H](C(=O)N[C@@H](CC(N)=O)C(=O)N[C@@H](Cc1c[nH]c2ccccc12)C(=O)N[C@@H](CC(C)C)C(=O)N[C@@H](CC(C)C)C(=O)N[C@@H](C)C(=O)N[C@@H](CCC(N)=O)C(=O)N[C@@H](CCCCN)C(=O)NCC(=O)N[C@@H](CCCCN)C(=O)N[C@@H](CCCCN)C(=O)N[C@@H](CC(N)=O)C(=O)N[C@@H](CC(=O)O)C(=O)N[C@@H](Cc1c[nH]c2ccccc12)C(=O)N[C@@H](CCCCN)C(=O)N[C@@H](Cc1c[nH]cn1)C(=O)N[C@@H](CC(N)=O)C(=O)N[C@H](C(=O)N[C@H](C(=O)N[C@@H](CCC(N)=O)C(=O)O)[C@@H](C)O)[C@@H](C)CC)C(C)C)[C@@H](C)CC [GIP(LysPAL^16)]
insulin secretion stimulated compared to 5.6 mM glucose control: 1.1- to 2.5 fold

CCCCCCCCCCCCCCCC(=O)NCCCC[C@H](NC(=O)[C@H](Cc1c[nH]c2ccccc12)NC(=O)[C@H](CC(=O)O)NC(=O)[C@H](CC(N)=O)NC(=O)[C@H](CCCCN)NC(=O)[C@H](CCCCN)NC(=O)CNC(=O)[C@H](CCCCN)NC(=O)[C@H](CCC(N)=O)NC(=O)[C@H](C)NC(=O)[C@H](CC(C)C)NC(=O)[C@H](CC(C)C)NC(=O)[C@H](Cc1c[nH]c2ccccc12)NC(=O)[C@H](CC(N)=O)NC(=O)[C@@H](NC(=O)[C@H](Cc1ccccc1)NC(=O)[C@H](CC(=O)O)NC(=O)[C@H](CCC(N)=O)NC(=O)[C@H](CCC(N)=O)NC(=O)[C@H](Cc1c[nH]cn1)NC(=O)[C@@H](NC(=O)[C@H](CCCCN)NC(=O)[C@H](CC(=O)O)NC(=O)[C@H](CCSC)NC(=O)[C@H](C)NC(=O)[C@@H](NC(=O)[C@H](CO)NC(=O)[C@H](Cc1ccc(O)cc1)NC(=O)[C@H](CC(=O)O)NC(=O)[C@H](CO)NC(=O)[C@@H](NC(=O)[C@H](Cc1ccccc1)NC(=O)[C@@H](NC(=O)CNC(=O)[C@H](CCC(=O)O)NC(=O)[C@H](C)NC(=O)[C@@H](N)Cc1ccc(O)cc1)[C@@H](C)O)[C@@H](C)CC)[C@@H](C)CC)[C@@H](C)CC)C(C)C)C(=O)N[C@@H](Cc1c[nH]cn1)C(=O)N[C@@H](CC(N)=O)C(=O)N[C@H](C(=O)N[C@H](C(=O)N[C@@H](CCC(N)=O)C(=O)O)[C@@H](C)O)[C@@H](C)CC [GIP(LysPAL^37)]
insulin secretion stimulated compared to 5.6 mM glucose control: 1.1- to 2.5 fold
